Measured values from PMC12216399.
Read-outs that look alike come from different tables or passages of the source. No constants are given. Whether binding was seen depends on the method and setting. In cells and extracts the contact can be indirect. Some binding calls cover weakened binding; strength is not graded here. Each block holds one molecule with its values, some of them ahead of it.

The chains behind the UniProt entries cited, without tags or fusion partners.
UniProt P46940: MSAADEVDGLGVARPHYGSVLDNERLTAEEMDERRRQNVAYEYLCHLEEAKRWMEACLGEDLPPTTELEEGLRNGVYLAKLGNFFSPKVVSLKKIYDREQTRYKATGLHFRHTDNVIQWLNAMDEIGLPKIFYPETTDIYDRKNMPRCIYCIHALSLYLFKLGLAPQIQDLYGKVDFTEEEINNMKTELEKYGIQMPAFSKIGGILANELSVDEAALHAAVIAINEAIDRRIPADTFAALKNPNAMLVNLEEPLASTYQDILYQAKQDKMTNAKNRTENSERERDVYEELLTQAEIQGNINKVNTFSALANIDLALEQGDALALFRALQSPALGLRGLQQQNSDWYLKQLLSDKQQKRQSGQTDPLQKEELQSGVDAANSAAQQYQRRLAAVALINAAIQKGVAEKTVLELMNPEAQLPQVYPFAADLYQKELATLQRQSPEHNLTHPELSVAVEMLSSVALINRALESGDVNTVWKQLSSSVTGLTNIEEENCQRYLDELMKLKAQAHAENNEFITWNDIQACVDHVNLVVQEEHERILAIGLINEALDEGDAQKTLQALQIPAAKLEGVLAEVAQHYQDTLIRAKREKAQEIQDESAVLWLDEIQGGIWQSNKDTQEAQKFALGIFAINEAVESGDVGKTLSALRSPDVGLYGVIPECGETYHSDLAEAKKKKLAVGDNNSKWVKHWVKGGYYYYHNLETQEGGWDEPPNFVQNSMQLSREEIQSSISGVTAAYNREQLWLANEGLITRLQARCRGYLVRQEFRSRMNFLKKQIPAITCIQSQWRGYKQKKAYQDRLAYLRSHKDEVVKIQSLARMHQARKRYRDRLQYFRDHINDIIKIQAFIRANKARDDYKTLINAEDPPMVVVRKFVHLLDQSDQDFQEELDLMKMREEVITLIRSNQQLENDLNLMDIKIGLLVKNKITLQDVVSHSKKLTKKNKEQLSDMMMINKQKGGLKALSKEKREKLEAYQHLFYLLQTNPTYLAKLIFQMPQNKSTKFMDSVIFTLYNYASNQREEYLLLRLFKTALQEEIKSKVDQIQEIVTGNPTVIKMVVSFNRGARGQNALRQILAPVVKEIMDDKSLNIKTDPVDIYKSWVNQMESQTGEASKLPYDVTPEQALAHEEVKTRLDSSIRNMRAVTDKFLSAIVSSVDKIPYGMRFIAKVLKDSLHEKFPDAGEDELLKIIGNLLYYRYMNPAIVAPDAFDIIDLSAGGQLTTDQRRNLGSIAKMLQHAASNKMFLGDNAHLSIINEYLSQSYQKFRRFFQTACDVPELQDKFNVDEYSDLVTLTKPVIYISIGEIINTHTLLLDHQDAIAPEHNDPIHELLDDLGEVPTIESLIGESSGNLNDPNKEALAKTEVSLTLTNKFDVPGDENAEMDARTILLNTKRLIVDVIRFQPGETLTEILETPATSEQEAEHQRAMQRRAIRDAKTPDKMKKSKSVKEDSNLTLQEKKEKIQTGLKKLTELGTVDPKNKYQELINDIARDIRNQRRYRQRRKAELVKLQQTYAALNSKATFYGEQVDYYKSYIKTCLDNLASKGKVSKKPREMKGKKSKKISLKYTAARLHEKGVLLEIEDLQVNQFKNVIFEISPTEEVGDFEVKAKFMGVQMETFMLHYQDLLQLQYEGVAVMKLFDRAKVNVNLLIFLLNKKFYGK

Legend:
[1] = target: T1, ATG9A (Autophagy Related 9 A) (human (endogenous in human ovarian cancer cells)) (UniProt Q7Z3C6); experiment: co-IP; ATG9A antibody (Cell Signaling Technology, 13509S) or rabbit IgG crosslinked with DSS to resin (Pierce Crosslink Immunoprecipitation Kit); 750 µg protein extract, 4 °C overnight; Western blot of eluate; cancer cells alone or co-cultured with macrophages
T1 sequence: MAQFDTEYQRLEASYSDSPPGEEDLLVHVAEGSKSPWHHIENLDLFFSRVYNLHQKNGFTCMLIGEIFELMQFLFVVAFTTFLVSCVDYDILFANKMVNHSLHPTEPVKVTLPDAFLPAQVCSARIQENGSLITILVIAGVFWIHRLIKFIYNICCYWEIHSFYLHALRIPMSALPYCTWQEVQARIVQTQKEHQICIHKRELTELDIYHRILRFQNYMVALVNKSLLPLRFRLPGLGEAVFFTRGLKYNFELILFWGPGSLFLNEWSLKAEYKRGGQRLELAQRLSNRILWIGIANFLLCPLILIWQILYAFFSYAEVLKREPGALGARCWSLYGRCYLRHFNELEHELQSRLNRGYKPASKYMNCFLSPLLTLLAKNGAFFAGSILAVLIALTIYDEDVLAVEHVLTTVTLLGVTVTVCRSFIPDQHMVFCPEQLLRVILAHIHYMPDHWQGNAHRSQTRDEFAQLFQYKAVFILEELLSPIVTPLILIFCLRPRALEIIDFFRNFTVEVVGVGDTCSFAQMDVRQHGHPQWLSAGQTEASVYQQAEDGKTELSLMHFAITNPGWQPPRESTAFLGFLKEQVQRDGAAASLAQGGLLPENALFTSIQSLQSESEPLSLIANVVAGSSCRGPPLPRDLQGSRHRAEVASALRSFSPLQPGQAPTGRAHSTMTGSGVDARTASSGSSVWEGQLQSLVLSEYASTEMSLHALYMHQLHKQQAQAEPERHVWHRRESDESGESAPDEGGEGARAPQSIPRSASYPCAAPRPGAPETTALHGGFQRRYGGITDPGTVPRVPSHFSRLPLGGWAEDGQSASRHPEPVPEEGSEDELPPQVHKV

[2] = target: T1, ATG9A (Autophagy Related 9 A) (human (endogenous in human ovarian cancer cells)); experiment: as above; remark: listed apart in the source

binding [1]: binds
Molecule: IQGAP1 (from UniProt P46940 1-1657)

binding [2]: binds
B1: caveolae associated protein 2 (CAVIN2) (protein, UniProt O95810 1-425)
chain: MGEDAAQAEKFQHPGSDMRQEKPSSPSPMPSSTPSPSLNLGNTEEAIRDNSQVNAVTVLTLLDKLVNMLDAVQENQHKMEQRQISLEGSVKGIQNDLTKLSKYQASTSNTVSKLLEKSRKVSAHTRAVKERMDRQCAQVKRLENNHAQLLRRNHFKVLIFQEENEIPASVFVKQPVSGAVEGKEELPDENKSLEETLHTVDLSSDDDLPHDEEALEDSAEEKVEESRAEKIKRSSLKKVDSLKKAFSRQNIEKKMNKLGTKIVSVERREKIKKSLTSNHQKISSGKSSPFKVSPLTFGRKKVREGESHAENETKSEDLPSSEQMPNDQEEESFAEGHSEASLASALVEGEIAEEAAEKATSRGSNSGMDSNIDLTIVEDEEEESVALEQAQKVRYEGSYALTSEEAERSDGDPVQPAVLQVHQTS
